Test results taken from patent US4371465A, “Mammalian collagenase inhibitors” (American Home Products Corporation, priority 1981, dated 1983).
At least one peptide structure holds a part that was inferred or is arguable (an end, a ring closure or a residue). Non-standard residues stand in square brackets, D forms with d. Residues, ends and D or L forms follow the SMILES beside them. ξ: configuration not given here. *: point of attachment. Cyclopentanecarbonyl = O=C(C1CCCC1)*; ξPen = CC(C)(S)C(N)C(=O)O

System: collagenase
Experiment: Collagenase inhibition (acetyl 14C collagen hydrolysis, procedure of Sellers et al.)
Type: biochemical
Conditions: 2 mM inhibitor; 35° C., 5 to 18 hours; Tris-CaCl2 pH 7.4; vs control devoid of inhibitor
Protocol: The inhibitory effect of the compounds of this invention toward collagenase was determined following the procedure of Sellers et al., Biochem J. 167 353-360 (1977) whereby the 2mM of the inhibitor being tested is incubated at 35° C. for from 5 to 18 hours (depending upon the potency of the collagenase) with collagen and collagenase (buffered with Tris®-CaCl2; pH 7.4). The collagen is acetyl ^14 C collagen. The samples are centrifuged and an aliquot removed for assay on a scintillation counter. Because native collagen forms insoluble fibrils under the test conditions, the supernatant liquid contains radioactivity as a measure of hydrolysis. The collagenase activity in the presence of 2mM inhibitor is compared to activity in a control devoid of inhibitor and the results reported as percent inhibition of collagenase activity. Each of the compounds of this invention have been established as active collagenase inhibitors by the test procedure.
The following example illustrates the preparation of a typical, representative compound of the invention. The precent inhibition of collagenase activity at the 2 mM polypeptide level in accordance with the previously described standard testing procedure is provided after the preparatory description is compared to D-penicillamine alone, the latter being a known collagenase inhibitor.

CC(C)(S)C(NC(=O)[C@H](CCC(N)=O)NC(=O)[C@@H]1CCCN1C(=O)CNC(=O)C1CCCC1)C(N)=O (stereo partly shown) [EXAMPLE] (Cyclopentanecarbonyl-GPQ[ξPen]-NH2)
Percent inhibition collagenase: 86
